The nature of this assay: qHTS Assay for Modulators of Lamin A Splicing. To be noted: HeLa LMNA splicing GFP/RFP minigene ratio, 48 h. In short, it runs like this:
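S3 HeLa cells stably expressing lamin A-EGFP splicing minigene plus DsRed2, 600 cells/well, 48 h compound exposure at 37C. Laser-scanning cytometry; analysed as GFP (500-530 nm)/RFP (575-640 nm) total intensity ratio; 0.5% DMSO vehicle.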
Background: In qHTS, concentration-response curves come from the screen itself.

Setting [1] is: measured here: GFP splicing reporter channel.
[2] abbreviates: measured here: RFP viability control channel.

The structures appear in SMILES notation. Values joined by “and” are separate entries in the source; they are usually repeats but may differ in a detail not shown here. Equal entries are not always repeated. The list shows a part of the results. Shown are side measurements of this screen, not its main read-out; they come without a call. The list favours compounds with an active or inconclusive main result. Potencies come from curve fits of mixed quality, noted in brackets.

Broadly, the AC50 is the midpoint of the concentration-response curve, whichever way the signal moves. As to `CCn1c(O)c(C=Nc2ccc(N3CCOCC3)cc2)c(=O)n(CC)c1=S`, the AC50 by setting is: under setting [1], 35.5 µM [falling, single point]; under setting [2], 35.5 µM [falling, single point].

For `O=C1NC(=O)C(CCc2ccncc2)(CCc2ccncc2)C(=O)N1Cc1ccccc1`, the concentration at half-maximal activity (AC50) under setting [1] was 0.00282 µM [falling, full curve, poor fit].

For `NCCCC[C@H](N[C@@H](CCc1ccccc1)C(=O)O)C(=O)N1CCC[C@H]1C(=O)O`, the AC50 by setting is: under setting [1], 3.55 µM [falling, partial curve, poor fit]; under setting [2], 0.001 µM [falling, full curve, poor fit].

As for `N#CCCn1cc(C(=O)Nc2ccc([N+](=O)[O-])cc2)c(-c2ccc3c(c2)OCCO3)n1`, under setting [2], the concentration at half-maximal activity (AC50) is 2.24 µM [falling, partial curve, poor fit].

Take `C=CCN(CC=C)Cc1c[nH]c2ccccc12`: the concentration at half-maximal activity (AC50) under setting [1] was 25.1 µM [rising, single point] and the AC50 under setting [2] was 22.4 µM [rising, single point].

For the compound `Cc1cc(N2CCCC2)ccc1C=C(C#N)C#N`, the concentration at half-maximal activity (AC50) under setting [2] is 35.5 µM [falling, single point].

As to `O=c1[nH]c(=O)n(CCC2=CCCCC2)c(O)c1C=NC1CCN(Cc2ccccc2)CC1`, the AC50 under setting [2] is 15.8 µM [rising, partial curve, poor fit].

As for `Oc1ccccc1O`, the half-maximal activity concentration (AC50) was 11.2 µM [falling, partial curve] under setting [1] and 11.2 µM [falling, partial curve] under setting [2].

On to `Cc1ccc2c(c1)cc(C(=O)Nc1ccccc1C)n2C`, for which the AC50 under setting [2] is 10 µM [rising, partial curve].

For `CC1(C)CC(=O)c2cc(OCC(=O)N3CCN(Cc4ccccc4)CC3)ccc2O1`, under setting [1], the concentration at half-maximal activity (AC50) was 14.1 µM [falling, single point].

With `CC(C)=O`, the half-maximal activity concentration (AC50) reads like this: under setting [1], 0.00501 µM [falling, full curve, poor fit]; under setting [2], 0.1 µM [falling, single point].

With `O=C(N/N=C/c1c(O)n(CCC2=CCCCC2)c(=S)[nH]c1=O)c1ccccc1`, the AC50 under setting [2] was 35.5 µM [rising, single point].

As to `CCCc1nc2ccc(Br)cc2c(=O)n1-c1ccc([N+](=O)[O-])c(C(F)(F)F)c1`, under setting [2], the AC50 was 31.6 µM [rising, single point].

Take `Clc1ccc([C@@H](OCCN2CCCCC2)c2ccccc2)cc1`: under setting [1], the concentration at half-maximal activity (AC50) is 0.000398 µM [falling, full curve, poor fit].

Regarding `CN1/C(=C\C=C2C(=O)NC(=S)NC2=O)C(C)(C)c2ccccc21`, the half-maximal activity concentration (AC50) under setting [2] was 35.5 µM [rising, single point].

On to `CC1CCC[C@H](O)CCCCCc2cc(O)cc(O)c2C(=O)O1` (stereo partly drawn), for which the AC50 was 3.98 µM [falling, partial curve] under setting [1] and 31.6 µM [rising, single point] under setting [2].

With `O=C(Nc1ccncc1)c1cccn(Cc2ccccc2)c1=O`, the half-maximal activity concentration (AC50) under setting [1] is 10 µM [falling, partial curve, poor fit].

`COc1ccc(Cc2nccc3cc(OC)c(OC)cc23)cc1OC`: the AC50 under setting [1] is 2 µM [falling, full curve] and 7.08 µM [falling, partial curve]; the AC50 under setting [2] was 2 µM [falling, full curve] and 2 µM [rising, full curve].

With `O=C(NCCCN1CCOCC1)C(Cl)(Cl)Cl`, the concentration at half-maximal activity (AC50) under setting [1] was 5.62 µM [rising, full curve, poor fit] and the AC50 under setting [2] was 1.58 µM [rising, partial curve].

Take `NCCCP(=O)(O)O`: under setting [2], the concentration at half-maximal activity (AC50) was 0.00501 µM [falling, full curve, poor fit].

In the case of `CCOP(=S)(NN(Cc1ccccc1)C(=O)c1ccccc1)OCC`, the concentration at half-maximal activity (AC50) under setting [2] was 1.26 µM [falling, partial curve, poor fit].

In the case of `CNCCc1c[nH]c2ccc(O)cc12`, the half-maximal activity concentration (AC50) under setting [1] was 0.2 µM [rising, full curve, poor fit].

With `O=c1c2ccccc2nc(C[n+]2ccccc2)n1-c1cccc(C(F)(F)F)c1`, the AC50 was 12.6 µM [falling, partial curve, poor fit] under setting [1] and 1.26 µM [falling, full curve, poor fit] under setting [2].

Turning to `Cc1ccc(CNc2cc(C)nc3nc(-c4ccc(C)cc4)nn23)cc1`, the AC50 under setting [2] was 22.4 µM [rising, single point].

Turning to `CCN1/C(=C\C=C\C2=[N+](CC)c3ccccc3C2(C)C)C(C)(C)c2ccccc21`, the AC50 under setting [2] is 0.1 µM [rising, full curve, poor fit].

With `CC(COc1ccccc1)N(CCCl)Cc1ccccc1` (stereo not drawn), the AC50 under setting [2] is 0.00501 µM [falling, full curve, poor fit].

Take `COc1ccccc1CCNC1CCC(C(C)(C)C)CC1` (stereo not drawn): the half-maximal activity concentration (AC50) was 12.6 µM [rising, single point] under setting [1] and 20 µM [rising, single point] under setting [2].

Take `COc1ccc(-n2c(SC)nc3ccccc3c2=O)cc1`: the half-maximal activity concentration (AC50) under setting [2] is 35.5 µM [rising, single point].

With `COc1cc(C(=O)N/N=C/c2ccc(OC(=O)N3CCOCC3)cc2)cc(OC)c1OC`, the AC50 is, setting by setting: under setting [1], 6.31 µM [rising, partial curve, poor fit]; under setting [2], 35.5 µM [rising, single point].

As to `N#CC(C#N)=Cc1cccnc1`, the concentration at half-maximal activity (AC50) under setting [1] is 0.0224 µM [falling, full curve, poor fit].

With `COc1cc(Cn2c(=O)oc3ccc(C)cc32)ccc1OC(C)C`, the AC50 under setting [2] is 35.5 µM [rising, single point].

With `CCC[N+]12CCC(CC1)C(=C(c1ccccc1)c1ccccc1)C2`, the AC50 under setting [2] was 7.94 µM [rising, partial curve, poor fit].

For the compound `Cc1[nH]c2ccc(OC(=O)N3CCOCC3)cc2c1C(=O)OC(C)C`, the AC50 under setting [2] is 11.2 µM [rising, partial curve].

Regarding `C=C(C)c1cccc(C(C)(C)NC(=O)NC2CN3CCC2CC3)c1` (stereo not drawn), the half-maximal activity concentration (AC50) under setting [2] was 35.5 µM [rising, partial curve].

`CC(C)(C)C(=O)OCC(=O)C1CCC2C3CCC4=CC(=O)CCC4(C)C3CCC12C` (stereo not drawn): under setting [2], the concentration at half-maximal activity (AC50) was 11.2 µM [rising, partial curve, poor fit].

On to `CC1CC(NC(=O)C2C3CCC(O3)C2C(=O)O)CC(C)(C)C1` (stereo not drawn), for which the AC50 is 31.6 µM [rising, single point] under setting [1] and 35.5 µM [rising, partial curve, poor fit] under setting [2].
